The values below come from PMC2043495.

Amino acid sequences for entries named in this document (tags omitted).
UniProt Q16539: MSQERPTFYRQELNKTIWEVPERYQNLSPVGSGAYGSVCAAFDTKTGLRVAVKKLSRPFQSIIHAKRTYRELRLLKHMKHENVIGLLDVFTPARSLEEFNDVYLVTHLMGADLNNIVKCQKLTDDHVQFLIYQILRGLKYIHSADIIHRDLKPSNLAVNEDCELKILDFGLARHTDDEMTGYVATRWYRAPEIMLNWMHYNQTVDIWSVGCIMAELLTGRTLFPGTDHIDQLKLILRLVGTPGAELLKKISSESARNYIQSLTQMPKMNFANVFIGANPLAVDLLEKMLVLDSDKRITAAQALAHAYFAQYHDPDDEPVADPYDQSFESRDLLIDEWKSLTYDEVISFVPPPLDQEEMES

The target of one assay is T1, Flag-TXNL1 (UniProt O43396).
T1 sequence: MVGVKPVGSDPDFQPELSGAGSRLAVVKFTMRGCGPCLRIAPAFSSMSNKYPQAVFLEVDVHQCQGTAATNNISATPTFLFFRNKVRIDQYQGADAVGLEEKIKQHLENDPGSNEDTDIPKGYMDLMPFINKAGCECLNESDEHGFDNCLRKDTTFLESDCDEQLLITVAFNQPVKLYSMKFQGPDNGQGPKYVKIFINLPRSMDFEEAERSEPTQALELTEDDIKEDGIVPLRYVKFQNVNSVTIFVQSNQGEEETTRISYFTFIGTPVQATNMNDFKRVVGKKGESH
Briefly: co-IP; HeLa cells co-transfected with Flag-TXNL1 and His6-p38MAPK; lysis in TNE (20 mM Tris pH 7.4, 150 mM NaCl, 1 mM EDTA) with 10% glycerol, 1% NP-40; IP with or without the indicated antibodies, protein-A Sepharose; western blotting.

In the next assay the target is His6-p38MAPK (UniProt Q16539). The assay is described as above.

No constants are given. Whether binding was seen depends on the method and setting. In cells and extracts the contact can be indirect. Some binding calls cover weakened binding; strength is not graded here. Where a sequence is shown, tags or fusion partners need not be part of it.

On to “His6-p38MAPK (from UniProt Q16539 1-360)”, for which the binding entry with Flag-TXNL1 is reported as “binds weakly”.

B1: Flag-TXNL1 (protein, UniProt O43396 1-289)
chain: MVGVKPVGSDPDFQPELSGAGSRLAVVKFTMRGCGPCLRIAPAFSSMSNKYPQAVFLEVDVHQCQGTAATNNISATPTFLFFRNKVRIDQYQGADAVGLEEKIKQHLENDPGSNEDTDIPKGYMDLMPFINKAGCECLNESDEHGFDNCLRKDTTFLESDCDEQLLITVAFNQPVKLYSMKFQGPDNGQGPKYVKIFINLPRSMDFEEAERSEPTQALELTEDDIKEDGIVPLRYVKFQNVNSVTIFVQSNQGEEETTRISYFTFIGTPVQATNMNDFKRVVGKKGESH
For B1, the binding result with His6-p38MAPK was “binds weakly”.
